According to paper doi:10.1101/162958:

Target: T1, C-terminally myc-epitope tagged Stx3 (membrane-anchored Stx3A) (human) (UniProt Q13277)
T1 sequence: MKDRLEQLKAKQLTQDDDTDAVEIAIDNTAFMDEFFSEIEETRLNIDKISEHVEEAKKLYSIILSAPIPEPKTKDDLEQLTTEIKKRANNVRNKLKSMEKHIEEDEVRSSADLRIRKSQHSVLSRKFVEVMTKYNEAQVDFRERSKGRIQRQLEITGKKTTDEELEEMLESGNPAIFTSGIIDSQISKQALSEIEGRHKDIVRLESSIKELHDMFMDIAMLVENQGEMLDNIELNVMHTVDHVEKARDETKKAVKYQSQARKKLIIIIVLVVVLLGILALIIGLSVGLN
Assay: affinity purification with mass spectrometry

- binding: binds
Molecule: RanBP5 (endogenous in MDCK cells)

- binding: binds
B1: munc-18b (endogenous in MDCK cells) (protein, UniProt Q28288 1-593)
chain: MAPSGLKEVVGEKILNGVIRSVKKDGEWKVLIMDHPSMRILSSCCKMSDILAEGITIVEDINKRREPIPSLEAIYLLSPTEKSVQALIADFRGTPTFTYKAAHIFFTDTCPEPLFTELSRSRLAKVVKTLKEIHLAFLPYEAQVFSLDAPHSTYNLYCPFRVGERARQIEALAQQIATLCATLQEYPAIRYRKGPEVTAQLANAVLAKLNAFKADNPSLGEGPEKTRSQLLIVDRGADPVSPLLHELTFQAMAYDLLNIEQDTYRYETTGLSEAREKAVLLDEDDDLWVELRHMHIADVSKKVTELLKTFCESKRLTTDKANIKDLSHILKKMPQYQKELNKYSTHLHLADDCMKHFKGSVEKLCGVEQDLAMGSDTEGEKIKDAMKLIVPVLLDAAVPAYDKIRVLLLYILLRNGVSEENLAKLIQHANVQAHSSLIRNLEQLGGTVTNPGGPGTSSRLERRERLEPTYQLSRWTPVIKDVMEDAVEDRLDRKLWPFVSDPAPTSSSQAAVSARFGHWHKNKAGVEMRAGPRLIIYVMGGVAMSEMRAAYEVTRATDGKWEVLIGSSHILTPTRFLDDLKTLDQKLEDIALP

These are yes or no findings as the source states them, for the method shown. Binding seen in cells or lysates may run through a third protein. A yes stands for co-enrichment or nearness to the bait. Other partners may have been found. Tags and fused reporters may be left off the sequences shown. One block for each molecule: values may come before it.
